Laboratory results taken from PubChem BioAssay AID504834 (National Center for Advancing Translational Sciences (NCATS), 2011).
About 22,000 (6.9%) of roughly 320,000 compounds were called active. Inconclusive means that the source gave no clear call. Such entries were picked first, then a sample of the others. Calls come from the whole dose curve; as a rule, active = well fitted inhibition curve with a large enough effect; inconclusive = small, poorly fitted or top-dose-only effect, or another doubt; inactive = no such curve, though single readings can be large or run the other way. Potencies beside an inconclusive call are fits to weak or partial responses and may not hold up.

Assay: Primary qHTS for delayed death inhibitors of the malarial parasite plastid, 96 hour incubation
Conditions: P. falciparum luciferase reporter growth; series mostly up to 28.7 µM
Summary of the method: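 Readout is luminescence from an integrated firefly luciferase in P. falciparum. Red cells, 2% hematocrit and 0.05% parasitemia final, were cultured with compound through two parasite generations (96 hours) at 37 C, 5% CO2.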
Potency is the fitted concentration of half-maximal effect.

Which Potency does the source give for `Cc1ccccc1CSc1nc2c(c(=O)[nH]1)CCC2` here?
Its Potency is inconclusive: 20.8 µM [inhibitor, partial curve, poor fit].

Which Potency does the source give for `CCCc1nnc(SCC(=O)N2CCCCC2C)n1CC` (centres undefined) here?
Its Potency is inconclusive: 0.522 µM [inhibitor, full curve, poor fit].

Which Potency does the source give for `Cc1ccc(CN2CCC(n3nccc3NC(=O)CCOc3ccccc3)CC2)cc1C` here?
The Potency was inconclusive: 0.586 µM [inhibitor, full curve, poor fit].

Which Potency does the source give for `O=C(OCn1nnc2ccccc2c1=O)c1ccc(S(=O)(=O)N2CCOCC2)cc1` here?
Its Potency is inconclusive: 2.08 µM [inhibitor, full curve].

Which Potency does the source give for `COc1ccc(C(=O)c2ccc(-c3ccc(OC)cc3)nc2)cc1` here?
Its Potency is “inactive”.

For `COCCNC(=S)Nc1ccc2nc(N3CCN(C)CC3)cc(C)c2c1`, which Potency is on record?
Its Potency is “inactive”.

Which Potency does the source give for `CCc1ccccc1NC(=O)c1ccc([N+](=O)[O-])s1` here?
Its Potency is inconclusive: 2.08 µM [inhibitor, partial curve, poor fit].

Which Potency does the source give for `O=C(NNC(=O)C(c1ccccc1)c1ccccc1)c1ccccn1` here?
Its Potency is active: 2.62 µM.

For `CCCCc1nc2cc(C(=O)N3CCC[C@H]3CO)ccc2o1`, which Potency is on record?
Its Potency is inconclusive: 13.1 µM [inhibitor, partial curve, poor fit].

For `O=C(CSc1nc2ccccc2n1CCc1ccccc1)N1CCOCC1`, which Potency is on record?
Its Potency is inconclusive: 10.4 µM [inhibitor, single point].

For `O=C(O)CSCC(=O)N(Cc1ccccc1)c1nc(-c2ccccc2)c(-c2ccccc2)s1`, which Potency is on record?
The Potency was inconclusive: 5.86 µM [inhibitor, partial curve, poor fit].

Which Potency does the source give for `CC1(C(=O)Nc2nnc(SCc3ccccc3)s2)Cc2ccccc2C(=O)O1` (centres undefined) here?
Its Potency is inconclusive: 2.94 µM [inhibitor, full curve, poor fit].

Which Potency does the source give for `COC(=O)c1ccc2c(c1)C(=O)/C(=C/c1ccc(C)cc1)O2` here?
Its Potency is inconclusive: 4.15 µM [inhibitor, single point].

With `CC(=O)NCCc1nc2ccccc2n1Cc1cccc(C)c1` as the compound, how does the Potency read?
The Potency was inconclusive: 18.5 µM [inhibitor, single point].

For `CC(=O)c1ccc(OC(=O)COc2ccccc2Cl)cc1`, which Potency is on record?
The Potency was “inactive”.

With `COc1ccc(S(=O)(=O)NCC(=O)N(CC(=O)NCc2ccco2)Cc2ccc(F)cc2)cc1` as the compound, how does the Potency read?
The Potency was inconclusive: 2.94 µM [inhibitor, full curve].

For `COCCOc1ccc(C(F)(F)F)cc1NC(=O)COC(=O)C1=COCCO1`, which Potency is on record?
The Potency was inconclusive: 0.828 µM [inhibitor, partial curve, poor fit].

For `Cc1cc(C)c(OCC(=O)NCCCn2nc(C)cc2C)c(C)c1`, which Potency is on record?
Its Potency is inconclusive: 5.86 µM [inhibitor, partial curve].

For `CC(=O)c1cccc(N(C(=O)c2ccco2)C(C(=O)NC2CCCC2)c2ccccc2F)c1` (centres undefined), which Potency is on record?
Its Potency is inconclusive: 13.1 µM [inhibitor, partial curve, poor fit].

Which Potency does the source give for `CC(OC(=O)c1ccc2c(=O)n3c(nc2c1)CCCCC3)C(=O)Nc1ccc(F)cc1Cl` (centres undefined) here?
The Potency was “inactive”.

Which Potency does the source give for `O=[N+]([O-])c1ccc(Cl)c2c1C1C=CCC1C(c1ccccn1)N2` (centres undefined) here?
Its Potency is “inactive”.

For `COCc1cc(=O)n2c([nH]c3ccccc32)c1C#N`, which Potency is on record?
Its Potency is inconclusive: 14.7 µM [inhibitor, single point].

Which Potency does the source give for `CCN(CC)C(=O)Cn1cc(C(=O)C(=O)NCCCN2CCCCC2)c2ccccc21` here?
The Potency was “inactive”.

Which Potency does the source give for `CCOc1ccccc1OCC(=O)Nc1c(C)n(C)n(-c2ccccc2)c1=O` here?
The Potency was “inactive”.

Which Potency does the source give for `CN(C)CCCOC(=O)c1cc2ccccc2o1` here?
The Potency was inconclusive: 18.5 µM [inhibitor, single point].

For `NC(=O)C1(C(N)=O)OC1c1ccc(Cl)cc1Cl` (centres undefined), which Potency is on record?
The Potency was “inactive”.

Which Potency does the source give for `COc1ccc(NC(=O)CC23CC4CC(CC(C4)C2)C3)cn1` here?
The Potency was “inactive”.

For `CSc1nsc(SC)c1C(=O)Nc1ccc(C)cc1`, which Potency is on record?
Its Potency is inconclusive: 18.5 µM [inhibitor, single point].

Which Potency does the source give for `CCC(=O)Nc1nc2c(OC)ccc(OC)c2s1` here?
The Potency was “inactive”.

For `C#Cc1ccc([C@@H]2C=C(C(=O)Nc3ccccc3)O[C@H](OCC)[C@H]2CCCO)cc1`, which Potency is on record?
Its Potency is active: 1.85 µM.

With `Cc1ccc2c(c1)cc1c(=O)n(CC(=O)NCc3ccccn3)nc(C)n12` as the compound, how does the Potency read?
The Potency was inconclusive: 11.7 µM [inhibitor, partial curve, poor fit].

For `Nc1cc(C(=O)c2cccs2)ccc1Cl`, which Potency is on record?
Its Potency is inconclusive: 11.7 µM [inhibitor, single point].

For `Cc1cc(C)cc(NC(=O)Cn2nnc(C(=O)NCc3ccc4c(c3)OCO4)c2N)c1`, which Potency is on record?
The Potency was active: 0.104 µM.

For `CC(C)(O)C#Cc1ccc(CN2CCC(n3nccc3NC(=O)C3CC3)CC2)cc1`, which Potency is on record?
Its Potency is inconclusive: 8.28 µM [inhibitor, partial curve].

Which Potency does the source give for `COc1cc2cnc(Cl)nc2cc1OC` here?
The Potency was “inactive”.

For `COc1ccc(NCC(O)Cn2cnc3c2c(=O)n(C)c(=O)n3C)cc1` (centres undefined), which Potency is on record?
The Potency was “inactive”.

With `Cc1ccc2ccccc2c1NC(=O)CNC1CCCCC1` as the compound, how does the Potency read?
The Potency was inconclusive: 0.0657 µM [inhibitor, full curve, poor fit].

For `O=C(NCc1ccccc1Cl)c1ccncc1`, which Potency is on record?
Its Potency is “inactive”.

With `O=C(NCCOc1cccc(Oc2ccccc2)c1)c1cc(-n2cnnc2)ccc1Cl` as the compound, how does the Potency read?
The Potency was inconclusive: 2.62 µM [inhibitor, partial curve, poor fit].

Which Potency does the source give for `Cc1ccccc1S(=O)(=O)c1c(C)cc(C)n(CC(C)C)c1=O` here?
Its Potency is inconclusive: 11.7 µM [inhibitor, single point].

For `CS(=O)(=O)c1ccc(Sc2nc3ccccc3[nH]2)c([N+](=O)[O-])c1`, which Potency is on record?
Its Potency is inconclusive: 18.5 µM [inhibitor, single point].

With `NC(=O)c1cccc(-c2noc(-c3ccccc3F)n2)c1` as the compound, how does the Potency read?
The Potency was inconclusive: 0.131 µM [activator, partial curve, poor fit].

Which Potency does the source give for `CCN(CC(=O)Nc1ccc(NC(C)=O)cc1)C(=O)/C=C/c1c(C)nn(-c2ccc(F)cc2)c1C` here?
Its Potency is inconclusive: 11.7 µM [inhibitor, single point].

With `C=Cn1cc[n+](CC(=O)c2ccc(Br)cc2)c1` as the compound, how does the Potency read?
Its Potency is active: 6.57 µM.

Which Potency does the source give for `Cc1nn(CCC#N)c2c1P(=S)(N1CCCC1)OC(c1ccc(F)cc1)=N2` (centres undefined) here?
The Potency was inconclusive: 3.29 µM [inhibitor, partial curve, poor fit].

With `Cc1cccc(NS(=O)(=O)c2cc3c4c(c2)CC(=O)N4CCC3)c1C` as the compound, how does the Potency read?
Its Potency is “inactive”.

For `CCOc1ccccc1N1CCN(c2nc3ccccc3nc2C(C#N)C(=O)OC(C)C)CC1` (centres undefined), which Potency is on record?
Its Potency is inconclusive: 20.8 µM [inhibitor, partial curve, poor fit].

For `O=c1c2ccccc2ncn1Cc1ccccc1`, which Potency is on record?
The Potency was inconclusive: 13.1 µM [inhibitor, partial curve, poor fit].

With `COC(=O)[C@H](CC(C)C)NS(=O)(=O)c1ccccc1` as the compound, how does the Potency read?
Its Potency is inconclusive: 0.0586 µM [inhibitor, full curve, poor fit].

With `Cc1cc(C)c2nc(SC(C)C(=O)NCC(=O)Nc3ccc(F)c(F)c3F)cc(C)c2c1` (centres undefined) as the compound, how does the Potency read?
The Potency was “inactive”.

Which Potency does the source give for `COCCn1c(Cc2ccccc2)nnc1SC(C)C(=O)NC1CC1` (centres undefined) here?
Its Potency is inconclusive: 9.28 µM [inhibitor, single point].

With `Cc1cc(N2CCN(c3ccccc3)CC2)n2cc(-c3ccccc3)nc2n1` as the compound, how does the Potency read?
Its Potency is active: 7.38 µM.

For `CC1Sc2ccc(S(=O)(=O)CCC(=O)Nc3ccc(C(C)C)cc3)cc2NC1=O` (centres undefined), which Potency is on record?
The Potency was “inactive”.

Which Potency does the source give for `COC(=O)[C@]1(S(=O)(=O)c2ccccc2)C[C@@H]2ON=C(c3ccc(OC)cc3)[C@@H]2C1` here?
The Potency was inconclusive: 13.1 µM [inhibitor, partial curve].

Which Potency does the source give for `CCCCOC(=O)c1ccc(NC(c2ccc(C)cc2)P(=O)(OC)OC)cc1` (centres undefined) here?
Its Potency is inconclusive: 18.5 µM [inhibitor, single point].

With `CSCC[C@H](NC(=O)[C@@H]1Cc2ccccc2CN1)C(=O)Nc1cccc(C)c1` as the compound, how does the Potency read?
Its Potency is “inactive”.

With `CCc1noc(C)c1C(=O)N(CCC(C)C)c1c(N)n(Cc2ccccc2)c(=O)[nH]c1=O` as the compound, how does the Potency read?
Its Potency is “inactive”.

With `COc1ccc(OCCNC(=O)/C=C/c2ccc([N+](=O)[O-])cc2)cc1` as the compound, how does the Potency read?
Its Potency is inconclusive: 18.5 µM [inhibitor, single point].

With `Cc1cccc(C(=O)O/N=C2\CCS(=O)(=O)c3sccc32)c1` as the compound, how does the Potency read?
The Potency was inconclusive: 9.28 µM [inhibitor, partial curve].

For `CCOC(=O)N1CCN(S(=O)(=O)c2ccc(C(=O)NNc3nc4c(C)cc(C)cc4s3)cc2)CC1`, which Potency is on record?
The Potency was inconclusive: 14.7 µM [inhibitor, partial curve, poor fit].

Which Potency does the source give for `Cc1cccc2nc(-c3ccco3)c(Nc3ccc4c(c3)OCO4)n12` here?
Its Potency is inconclusive: 18.5 µM [inhibitor, single point].

With `CCc1cccc(NC(=O)C2CCCN(c3cnccn3)C2)c1` (centres undefined) as the compound, how does the Potency read?
The Potency was inconclusive: 5.86 µM [inhibitor, partial curve].

With `c1ccc(-c2ccccc2OCCOCCN2CCc3ccccc3C2)cc1` as the compound, how does the Potency read?
Its Potency is inconclusive: 0.0657 µM [inhibitor, full curve, poor fit].

With `CCC(C)(C)NC(=O)C(c1cccs1)N(C(=O)c1ccn[nH]1)c1cccc(OC)c1` (centres undefined) as the compound, how does the Potency read?
The Potency was inconclusive: 9.28 µM [inhibitor, partial curve].

With `COc1ccc(Cl)cc1C(=O)Nc1cccnc1Cl` as the compound, how does the Potency read?
Its Potency is inconclusive: 14.7 µM [inhibitor, partial curve, poor fit].

For `CCOC(=O)N1CCC(N2CCN(S(=O)(=O)c3ccc([N+](=O)[O-])cc3)CC2)CC1`, which Potency is on record?
The Potency was inconclusive: 4.65 µM [inhibitor, partial curve, poor fit].

With `O=C(C1CCC(CNS(=O)(=O)c2cccc3cccnc23)CC1)N1CCCC1` (centres undefined) as the compound, how does the Potency read?
The Potency was active: 13.1 µM.

For `O=C(Nc1sc2c(c1C(=O)NCc1ccco1)CCCC2)c1ccc2c(c1)OCO2`, which Potency is on record?
Its Potency is “inactive”.

For `CC1=C(C)CC(C(=O)NCc2cccc(Cl)c2)C(C(=O)O)C1` (centres undefined), which Potency is on record?
Its Potency is active: 13.1 µM.
